Laboratory results published in article PMC11984393.
For at least one entry, the source does not settle the construct or the ends of the probe. Results from cells or extracts need not show a direct contact. For some of these results: Weaker means in comparison with the reference protein, sequence or condition of that experiment. For some of these results: At least one verdict rests on a figure or table, not on a statement of the authors.

By UniProt entry, the sequences of proteins in these tests, tags left out. Residues count along the entry.
UniProt Q02242, 25-288: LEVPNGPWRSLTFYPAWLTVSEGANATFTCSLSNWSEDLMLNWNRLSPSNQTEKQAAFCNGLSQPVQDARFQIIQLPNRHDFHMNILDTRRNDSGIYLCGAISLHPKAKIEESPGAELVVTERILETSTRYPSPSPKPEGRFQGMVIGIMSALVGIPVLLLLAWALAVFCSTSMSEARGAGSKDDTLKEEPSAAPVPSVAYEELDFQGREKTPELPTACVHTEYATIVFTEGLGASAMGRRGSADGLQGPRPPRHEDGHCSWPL

Key:
[1] = molecular target: PD1 (programmed death-1) (UniProt Q02242); assay: NIR-II fluorescence cell imaging; conditions: naive vs activated T cells, 30 min; live-cell binding, 30 min incubation; protein on the cell surface; label: 5'-ICG; single-stranded DNA
[2] = molecular target: PD1 (programmed death-1) (UniProt Q02242); assay: flow cytometry; conditions: CD8+ T cells, 30 min, live-cell binding, 30 min incubation, protein on the cell surface, label: 5'-FAM, single-stranded DNA
[3] = tested on: CD8 (T-cell surface marker); assay: NIR-II fluorescence cell imaging; conditions: CD8+ T cells, 30 min, QD conjugate; 3'-SH, coupled to DSPE-PEG-Mal on PbS/CdS QDs; live-cell binding, 30 min incubation; protein on the cell surface; label: PbS/CdS QD; single-stranded DNA

Q: Does “GACGATAGCGGTGACGGCACAGACGGTACAGTTCCCGTCCCTGCACTACACGTATGCCGCTTCCGTCCGTCGCTC [ICG-Apt-PD1]” bind [1]?
A: binds

Q: Does “TTTTTAAGTAATGTATTTAAATTGCGAACTACTACTCTCTCTATATATTGCGAACTACTACTCTCTCTATATTAAAGGAAGGATCTCA [Apt-random-FAM]” bind ([2]; significantly lower than Apt-PD1)?
A: binds more weakly

Q: Does “CCAGAGTGACGCAGCAACAGAGGTGTAGAAGTACACGTGAACAAGCTTGAAATTGTCTCCGACAGAGGTGGACACGGTGGCTTTTAGT [Apt-CD8-SH (QDs@Apt-CD8)]” bind [3]?
A: binds

Q: Does “GACGATAGCGGTGACGGCACAGACGGTACAGTTCCCGTCCCTGCACTACACGTATGCCGCTTCCGTCCGTCGCTC [Apt-PD1-FAM]” bind ([2]; no binding to CT26 or CL2 cells)?
A: binds
